Data as given in the supplement of paper PMC12067093, “Discovery and optimisation of a covalent ligand for TRIM25 and its application to targeted protein ubiquitination” (Chemical Science, 2025).
Some of the results follow.
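Also: competitive chemoproteomic profiling in live THP-1 cells with an iodoacetamide desthiobiotin (IA-DTB) probe, comparing probe-labelled peptide intensities in compound-treated cells against DMSO-treated controls.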

Amino acid sequences for entries named in this document (tags omitted). A change or cut given only in a name is not applied to a line headed by its entry.
UniProt P21964: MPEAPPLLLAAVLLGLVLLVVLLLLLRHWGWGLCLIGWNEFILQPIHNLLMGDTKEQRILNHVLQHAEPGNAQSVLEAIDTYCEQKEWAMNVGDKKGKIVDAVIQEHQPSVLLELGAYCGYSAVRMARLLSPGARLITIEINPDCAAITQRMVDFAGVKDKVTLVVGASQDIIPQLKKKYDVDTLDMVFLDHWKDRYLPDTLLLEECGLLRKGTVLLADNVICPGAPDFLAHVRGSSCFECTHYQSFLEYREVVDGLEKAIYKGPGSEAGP
UniProt Q9H9A5, whole entry, looked up: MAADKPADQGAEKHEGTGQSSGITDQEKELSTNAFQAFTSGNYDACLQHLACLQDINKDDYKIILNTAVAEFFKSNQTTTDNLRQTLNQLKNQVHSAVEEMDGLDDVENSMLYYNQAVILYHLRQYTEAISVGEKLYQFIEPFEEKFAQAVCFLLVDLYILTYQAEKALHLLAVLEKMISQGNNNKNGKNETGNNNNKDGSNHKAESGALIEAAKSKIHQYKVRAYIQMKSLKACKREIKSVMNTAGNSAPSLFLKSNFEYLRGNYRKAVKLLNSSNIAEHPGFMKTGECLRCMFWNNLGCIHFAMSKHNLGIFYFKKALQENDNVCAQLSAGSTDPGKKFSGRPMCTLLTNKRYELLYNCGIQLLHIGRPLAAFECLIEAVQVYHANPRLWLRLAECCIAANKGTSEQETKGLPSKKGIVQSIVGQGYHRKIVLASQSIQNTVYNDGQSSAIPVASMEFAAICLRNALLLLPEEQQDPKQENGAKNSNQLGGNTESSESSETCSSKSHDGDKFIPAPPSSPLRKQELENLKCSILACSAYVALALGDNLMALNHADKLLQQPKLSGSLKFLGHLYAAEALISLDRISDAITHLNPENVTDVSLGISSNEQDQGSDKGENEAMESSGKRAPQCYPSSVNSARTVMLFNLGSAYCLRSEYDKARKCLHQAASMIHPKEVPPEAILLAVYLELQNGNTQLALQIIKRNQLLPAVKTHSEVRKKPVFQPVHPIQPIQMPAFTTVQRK
UniProt P53621: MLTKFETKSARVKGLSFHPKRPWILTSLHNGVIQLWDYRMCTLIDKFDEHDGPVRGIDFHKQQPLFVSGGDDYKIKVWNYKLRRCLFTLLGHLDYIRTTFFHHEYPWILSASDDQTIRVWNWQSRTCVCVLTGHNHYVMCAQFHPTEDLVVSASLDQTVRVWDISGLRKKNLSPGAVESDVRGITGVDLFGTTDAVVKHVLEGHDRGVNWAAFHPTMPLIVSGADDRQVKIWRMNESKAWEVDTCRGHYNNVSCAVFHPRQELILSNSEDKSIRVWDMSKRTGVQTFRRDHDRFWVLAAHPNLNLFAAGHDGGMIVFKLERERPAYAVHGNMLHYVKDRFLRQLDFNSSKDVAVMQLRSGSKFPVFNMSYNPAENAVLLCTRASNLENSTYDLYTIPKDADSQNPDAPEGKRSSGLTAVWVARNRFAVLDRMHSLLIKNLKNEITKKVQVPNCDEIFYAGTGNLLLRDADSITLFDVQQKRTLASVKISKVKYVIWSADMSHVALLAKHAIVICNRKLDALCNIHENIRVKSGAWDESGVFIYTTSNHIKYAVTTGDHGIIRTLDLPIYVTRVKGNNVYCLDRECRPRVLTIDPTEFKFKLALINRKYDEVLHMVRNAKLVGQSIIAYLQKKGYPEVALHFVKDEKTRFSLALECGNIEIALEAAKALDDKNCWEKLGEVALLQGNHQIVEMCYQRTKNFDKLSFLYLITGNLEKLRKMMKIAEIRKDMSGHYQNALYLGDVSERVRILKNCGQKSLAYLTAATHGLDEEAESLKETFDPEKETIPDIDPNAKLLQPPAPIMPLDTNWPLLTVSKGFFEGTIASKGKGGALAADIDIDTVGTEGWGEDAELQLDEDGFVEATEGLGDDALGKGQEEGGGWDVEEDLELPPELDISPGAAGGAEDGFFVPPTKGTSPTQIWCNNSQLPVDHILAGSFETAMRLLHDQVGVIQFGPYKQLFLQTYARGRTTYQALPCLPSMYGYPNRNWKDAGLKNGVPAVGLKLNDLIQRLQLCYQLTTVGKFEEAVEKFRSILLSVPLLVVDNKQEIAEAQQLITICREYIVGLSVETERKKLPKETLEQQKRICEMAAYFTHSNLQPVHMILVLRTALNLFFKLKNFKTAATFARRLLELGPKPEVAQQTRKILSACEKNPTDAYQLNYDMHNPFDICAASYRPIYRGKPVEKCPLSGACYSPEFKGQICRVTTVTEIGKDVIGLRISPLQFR
UniProt P53618: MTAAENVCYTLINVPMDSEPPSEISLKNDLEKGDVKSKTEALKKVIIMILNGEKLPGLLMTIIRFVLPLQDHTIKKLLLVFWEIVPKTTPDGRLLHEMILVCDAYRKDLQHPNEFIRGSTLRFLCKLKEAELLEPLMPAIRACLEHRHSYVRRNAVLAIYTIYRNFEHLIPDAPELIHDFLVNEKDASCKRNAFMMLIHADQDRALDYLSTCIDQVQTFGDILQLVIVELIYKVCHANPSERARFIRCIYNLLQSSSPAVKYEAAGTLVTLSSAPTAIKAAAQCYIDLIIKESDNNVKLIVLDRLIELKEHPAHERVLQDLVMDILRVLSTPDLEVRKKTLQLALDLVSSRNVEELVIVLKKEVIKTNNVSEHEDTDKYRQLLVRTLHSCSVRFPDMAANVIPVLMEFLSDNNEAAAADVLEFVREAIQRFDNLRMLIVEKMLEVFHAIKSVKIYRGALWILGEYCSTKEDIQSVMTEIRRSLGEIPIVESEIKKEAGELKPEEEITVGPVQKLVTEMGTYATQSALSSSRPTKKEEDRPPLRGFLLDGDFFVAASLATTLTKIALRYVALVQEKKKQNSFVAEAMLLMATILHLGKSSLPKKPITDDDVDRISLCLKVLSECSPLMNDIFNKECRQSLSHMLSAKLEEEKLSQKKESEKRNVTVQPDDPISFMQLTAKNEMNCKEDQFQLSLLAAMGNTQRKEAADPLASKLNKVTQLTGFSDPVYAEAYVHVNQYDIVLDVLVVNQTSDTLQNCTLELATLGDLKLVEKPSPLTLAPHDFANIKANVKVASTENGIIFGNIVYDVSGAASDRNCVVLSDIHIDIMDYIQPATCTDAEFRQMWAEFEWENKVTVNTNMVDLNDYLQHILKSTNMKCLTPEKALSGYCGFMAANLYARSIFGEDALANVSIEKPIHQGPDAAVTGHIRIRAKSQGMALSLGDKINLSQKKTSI
UniProt Q96MW5: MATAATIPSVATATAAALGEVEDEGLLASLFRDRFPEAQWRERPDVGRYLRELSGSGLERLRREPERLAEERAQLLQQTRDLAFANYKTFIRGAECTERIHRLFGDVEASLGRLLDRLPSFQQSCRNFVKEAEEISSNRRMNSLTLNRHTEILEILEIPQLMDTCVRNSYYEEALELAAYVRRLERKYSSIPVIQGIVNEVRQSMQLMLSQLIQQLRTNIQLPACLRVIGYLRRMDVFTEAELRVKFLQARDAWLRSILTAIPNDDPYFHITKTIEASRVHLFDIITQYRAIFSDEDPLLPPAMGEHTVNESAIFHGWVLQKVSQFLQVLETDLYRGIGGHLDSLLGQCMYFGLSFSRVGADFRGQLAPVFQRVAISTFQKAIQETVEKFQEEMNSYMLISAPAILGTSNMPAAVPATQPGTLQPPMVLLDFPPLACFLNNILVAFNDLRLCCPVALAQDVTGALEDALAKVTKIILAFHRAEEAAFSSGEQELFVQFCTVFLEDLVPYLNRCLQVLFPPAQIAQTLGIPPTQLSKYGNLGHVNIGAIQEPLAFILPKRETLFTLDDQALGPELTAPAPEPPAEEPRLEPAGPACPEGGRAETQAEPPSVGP
UniProt Q8WTW3: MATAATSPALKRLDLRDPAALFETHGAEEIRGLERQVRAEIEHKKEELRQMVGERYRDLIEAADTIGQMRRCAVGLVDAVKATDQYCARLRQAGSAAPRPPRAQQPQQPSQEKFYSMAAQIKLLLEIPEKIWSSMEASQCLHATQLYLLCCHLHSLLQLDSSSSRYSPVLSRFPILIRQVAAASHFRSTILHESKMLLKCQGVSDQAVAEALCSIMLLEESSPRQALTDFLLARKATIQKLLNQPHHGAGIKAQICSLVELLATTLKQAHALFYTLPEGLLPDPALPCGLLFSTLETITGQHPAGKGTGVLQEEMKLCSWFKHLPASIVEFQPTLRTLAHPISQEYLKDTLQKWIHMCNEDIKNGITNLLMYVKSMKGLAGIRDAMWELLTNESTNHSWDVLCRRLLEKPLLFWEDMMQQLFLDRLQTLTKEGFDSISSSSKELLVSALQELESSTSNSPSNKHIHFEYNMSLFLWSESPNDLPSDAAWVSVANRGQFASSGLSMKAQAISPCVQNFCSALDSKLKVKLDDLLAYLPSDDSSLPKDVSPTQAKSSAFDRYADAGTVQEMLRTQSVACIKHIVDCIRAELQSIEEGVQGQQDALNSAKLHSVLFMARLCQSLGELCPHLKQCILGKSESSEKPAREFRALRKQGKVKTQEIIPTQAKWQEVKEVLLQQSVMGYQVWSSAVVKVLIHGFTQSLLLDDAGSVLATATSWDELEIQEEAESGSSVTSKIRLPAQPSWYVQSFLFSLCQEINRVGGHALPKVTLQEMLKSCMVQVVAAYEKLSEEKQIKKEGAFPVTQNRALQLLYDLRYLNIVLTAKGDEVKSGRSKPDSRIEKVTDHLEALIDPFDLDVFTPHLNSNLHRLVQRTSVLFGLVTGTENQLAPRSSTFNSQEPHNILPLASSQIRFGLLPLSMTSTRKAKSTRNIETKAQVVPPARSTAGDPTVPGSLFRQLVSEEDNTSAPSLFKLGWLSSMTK
UniProt P35606: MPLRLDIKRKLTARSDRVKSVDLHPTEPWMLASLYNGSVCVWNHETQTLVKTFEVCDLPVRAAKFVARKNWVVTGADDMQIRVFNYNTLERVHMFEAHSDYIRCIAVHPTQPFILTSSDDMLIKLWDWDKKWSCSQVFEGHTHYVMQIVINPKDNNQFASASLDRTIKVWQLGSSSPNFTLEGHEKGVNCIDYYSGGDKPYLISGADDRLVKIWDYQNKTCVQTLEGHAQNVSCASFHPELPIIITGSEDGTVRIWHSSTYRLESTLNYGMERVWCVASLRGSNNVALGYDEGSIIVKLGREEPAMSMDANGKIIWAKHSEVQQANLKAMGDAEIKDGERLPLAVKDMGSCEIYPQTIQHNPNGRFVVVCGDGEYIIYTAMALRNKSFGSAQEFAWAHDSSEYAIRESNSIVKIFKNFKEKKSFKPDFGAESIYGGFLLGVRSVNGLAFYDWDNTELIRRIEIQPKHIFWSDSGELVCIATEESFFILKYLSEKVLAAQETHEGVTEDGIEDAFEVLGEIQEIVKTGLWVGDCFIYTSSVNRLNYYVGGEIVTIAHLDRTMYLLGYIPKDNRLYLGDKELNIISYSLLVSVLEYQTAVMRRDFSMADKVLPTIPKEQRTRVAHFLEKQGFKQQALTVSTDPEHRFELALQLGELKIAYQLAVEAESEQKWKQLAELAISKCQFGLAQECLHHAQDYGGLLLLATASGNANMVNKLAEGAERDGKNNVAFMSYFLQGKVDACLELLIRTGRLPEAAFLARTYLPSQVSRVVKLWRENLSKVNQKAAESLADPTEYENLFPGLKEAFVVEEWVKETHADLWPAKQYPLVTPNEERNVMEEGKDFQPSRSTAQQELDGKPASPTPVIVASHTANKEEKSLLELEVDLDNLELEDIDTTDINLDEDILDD
UniProt Q99439: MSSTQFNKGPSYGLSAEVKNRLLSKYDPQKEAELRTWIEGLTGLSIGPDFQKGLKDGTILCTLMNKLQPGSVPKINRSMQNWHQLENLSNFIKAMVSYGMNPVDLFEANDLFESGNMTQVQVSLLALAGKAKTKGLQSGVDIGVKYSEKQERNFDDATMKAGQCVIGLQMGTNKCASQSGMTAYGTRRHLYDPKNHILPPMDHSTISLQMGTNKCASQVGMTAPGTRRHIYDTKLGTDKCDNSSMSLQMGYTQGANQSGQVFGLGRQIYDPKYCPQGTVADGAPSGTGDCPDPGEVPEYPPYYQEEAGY
UniProt Q5EBM0: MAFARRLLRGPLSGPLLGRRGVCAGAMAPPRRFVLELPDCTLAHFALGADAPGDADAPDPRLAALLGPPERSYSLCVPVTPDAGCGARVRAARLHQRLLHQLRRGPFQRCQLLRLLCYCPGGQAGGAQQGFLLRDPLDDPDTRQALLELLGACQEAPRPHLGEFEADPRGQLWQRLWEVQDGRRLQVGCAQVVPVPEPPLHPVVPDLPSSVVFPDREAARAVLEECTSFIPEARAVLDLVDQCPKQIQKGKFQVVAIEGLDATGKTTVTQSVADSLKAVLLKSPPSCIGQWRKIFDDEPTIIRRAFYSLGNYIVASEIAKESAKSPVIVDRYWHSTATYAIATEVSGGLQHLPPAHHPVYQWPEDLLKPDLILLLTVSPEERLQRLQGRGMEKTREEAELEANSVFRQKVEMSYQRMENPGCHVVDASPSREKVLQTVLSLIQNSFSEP

The targets below were run with CC1Cc2ccccc2N1C(=O)C1CCCN(C1)C(=O)CCl (mixture of isomers) [TRIM25 ligand 11 (diastereomer mixture)] (assay: probe-labelled cysteine peptide fold change vs DMSO (competition) (log2 fold change); higher = less target engagement (more negative = stronger competition)). Conditions: 10 µM; THP-1; incubation time: 4 h.
For “COPG1_Q9Y678_169_CSFDVVK (UniProt Q9Y678)”, the “probe-labelled cysteine peptide fold change” value was 0.0159.
In the case of “COMT_P21964_241_GSSCFECTHYQSFLEYR (UniProt P21964)”, the “probe-labelled cysteine peptide fold change” value is reported as 0.055.
“COPG1_Q9Y678_440+446_ETGLSHLCEFIEDCEFTVLATR (UniProt Q9Y678)” was tested, and the “probe-labelled cysteine peptide fold change” value was 0.0958.
With “COMT_P21964_207_DRYLPDTLLLEECGLLRK (UniProt P21964)” the “probe-labelled cysteine peptide fold change” value was -0.173.
“COL4A3BP_Q9Y5P4_84_AVITPHDFDECRFDISVNDSVWYLR (UniProt Q9Y5P4)” was tested, and the “probe-labelled cysteine peptide fold change” value was -0.17.
With “CNOT10_Q9H9A5_327_ALQENDNVCAQLSAGSTDPGK (UniProt Q9H9A5)” the “probe-labelled cysteine peptide fold change” value was 0.384.
With “COL4A3BP_Q9Y5P4_575_DNILCK (UniProt Q9Y5P4)” the “probe-labelled cysteine peptide fold change” value was 0.0373.
With “COPA_P53621_380_FPVFNMSYNPAENAVLLCTR (UniProt P53621)” the “probe-labelled cysteine peptide fold change” value was -0.0969.
With “COG5_Q9UP83_284_DTITSVVDGYCATLEENINSALDIK (UniProt Q9UP83)” the “probe-labelled cysteine peptide fold change” value was 0.0677.
In the case of “CNBP_P62633_140_CGETGHVAINCSK (UniProt P62633)”, the “probe-labelled cysteine peptide fold change” value is reported as 0.0925.
For “COPA_P53621_1169_NPTDAYQLNYDMHNPFDICAASYRPIYR (UniProt P53621)”, the “probe-labelled cysteine peptide fold change” value was 0.0527.
“COPG1_Q9Y678_446_ETGLSHLCEFIEDCEFTVLATR (UniProt Q9Y678)” was tested, and the “probe-labelled cysteine peptide fold change” value was -0.0941.
“COPB1_P53618_102_LLHEMILVCDAYR (UniProt P53618)” was tested, and the “probe-labelled cysteine peptide fold change” value was -0.0079.
For “COG3_Q96JB2_363_ELLLGPSIACTVAELTSQNNRDHCALVR (UniProt Q96JB2)”, the “probe-labelled cysteine peptide fold change” value was -0.436.
For “COL4A3BP_Q9Y5P4_185_YFDACADAVSKDELQR (UniProt Q9Y5P4)”, the “probe-labelled cysteine peptide fold change” value was -0.0647.
For “COPS7B_Q9H9Q2_110_CIPYSVLLK (UniProt Q9H9Q2)”, the “probe-labelled cysteine peptide fold change” value was 0.0397.
For “COG8_Q96MW5_595_LEPAGPACPEGGR (UniProt Q96MW5)”, the “probe-labelled cysteine peptide fold change” value was 0.133.
For “COPA_P53621_585_GNNVYCLDRECRPR (UniProt P53621)”, the “probe-labelled cysteine peptide fold change” value was -0.183.
With “CNBP_P62633_98_EQCCYNCGKPGHLAR (UniProt P62633)” the “probe-labelled cysteine peptide fold change” value was -0.12.
“CNP_P09543_111_RLDEDLAAYCR (UniProt P09543)” was tested, and the “probe-labelled cysteine peptide fold change” value was -0.0645.
COG1_Q8WTW3_318_LCSWFK (UniProt Q8WTW3) was tested, and the “probe-labelled cysteine peptide fold change” value was -0.0568.
“CNOT1_A5YKK6_1420_IAMTTCEQIVR (UniProt A5YKK6)” was tested, and the “probe-labelled cysteine peptide fold change” value was 0.095.
With “CNBP_P62633_77_DCDLQEDACYNCGR (UniProt P62633)” the “probe-labelled cysteine peptide fold change” value was -0.0579.
With “COPA_P53621_453_VQVPNCDEIFYAGTGNLLLR (UniProt P53621)” the “probe-labelled cysteine peptide fold change” value was -0.00047.
For “COPB2_P35606_104_CIAVHPTQPFILTSSDDMLIK (UniProt P35606)”, the “probe-labelled cysteine peptide fold change” value was 0.349.
For “CNN2_Q99439_215_CASQVGMTAPGTR (UniProt Q99439)”, the “probe-labelled cysteine peptide fold change” value was -0.0609.
With “COPG1_Q9Y678_97_EMSCIAEDVIIVTSSLTK (UniProt Q9Y678)” the “probe-labelled cysteine peptide fold change” value was 0.117.
With “COPA_P53621_245_AWEVDTCR (UniProt P53621)” the “probe-labelled cysteine peptide fold change” value was -0.0469.
“CNOT1_A5YKK6_420_HAEGQLSFIQHSLINPEIFCFADYPCHTVATDILK (UniProt A5YKK6)” was tested, and the “probe-labelled cysteine peptide fold change” value was 0.0297.
For “COPB2_P35606_351_DMGSCEIYPQTIQHNPNGR (UniProt P35606)”, the “probe-labelled cysteine peptide fold change” value was 0.0949.
“COPA_P53621_522_KLDALCNIHENIR (UniProt P53621)” was tested, and the “probe-labelled cysteine peptide fold change” value was 0.00658.
In the case of “CMPK2_Q5EBM0_226_AVLEECTSFIPEAR (UniProt Q5EBM0)”, the “probe-labelled cysteine peptide fold change” value is reported as -0.0816.
“COPS6_Q7L5N1_299_TCNTMNQFVNK (UniProt Q7L5N1)” was tested, and the “probe-labelled cysteine peptide fold change” value was 0.0367.
With “COPE_O14579_212_CSPTLLLLNGQAACHMAQGR (UniProt O14579)” the “probe-labelled cysteine peptide fold change” value was -0.161.
With “COPS6_Q7L5N1_264_EAYALCHCLPVLSTDK (UniProt Q7L5N1)” the “probe-labelled cysteine peptide fold change” value was 0.117.
In the case of “CNST_Q6PJW8_408_LQLAQTEACQDVAR (UniProt Q6PJW8)”, the “probe-labelled cysteine peptide fold change” value is reported as -0.158.
“CNOT10_Q9H9A5_504_NSNQLGGNTESSESSETCSSK (UniProt Q9H9A5)” was tested, and the “probe-labelled cysteine peptide fold change” value was -0.128.

Same assay, conditions: 50 µM; THP-1; incubation time: 4 h
For “COPG1_Q9Y678_169_CSFDVVK (UniProt Q9Y678)”, the “probe-labelled cysteine peptide fold change” value was 0.117.
In the case of “COMT_P21964_241_GSSCFECTHYQSFLEYR (UniProt P21964)”, the “probe-labelled cysteine peptide fold change” value is reported as -0.107.
“COPG1_Q9Y678_440+446_ETGLSHLCEFIEDCEFTVLATR (UniProt Q9Y678)” was tested, and the “probe-labelled cysteine peptide fold change” value was 0.133.
“COMT_P21964_207_DRYLPDTLLLEECGLLRK (UniProt P21964)” was tested, and the “probe-labelled cysteine peptide fold change” value was -0.022.
With “COL4A3BP_Q9Y5P4_84_AVITPHDFDECRFDISVNDSVWYLR (UniProt Q9Y5P4)” the “probe-labelled cysteine peptide fold change” value was -0.155.
With “CNOT10_Q9H9A5_327_ALQENDNVCAQLSAGSTDPGK (UniProt Q9H9A5)” the “probe-labelled cysteine peptide fold change” value was 0.392.
For “COL4A3BP_Q9Y5P4_575_DNILCK (UniProt Q9Y5P4)”, the “probe-labelled cysteine peptide fold change” value was 0.157.
“COPA_P53621_380_FPVFNMSYNPAENAVLLCTR (UniProt P53621)” was tested, and the “probe-labelled cysteine peptide fold change” value was 0.0467.
In the case of “COG5_Q9UP83_284_DTITSVVDGYCATLEENINSALDIK (UniProt Q9UP83)”, the “probe-labelled cysteine peptide fold change” value is reported as -0.0375.
“CNBP_P62633_140_CGETGHVAINCSK (UniProt P62633)” was tested, and the “probe-labelled cysteine peptide fold change” value was 0.134.
With “COPA_P53621_1169_NPTDAYQLNYDMHNPFDICAASYRPIYR (UniProt P53621)” the “probe-labelled cysteine peptide fold change” value was -0.0242.
With “COPG1_Q9Y678_446_ETGLSHLCEFIEDCEFTVLATR (UniProt Q9Y678)” the “probe-labelled cysteine peptide fold change” value was -0.12.
For “COPB1_P53618_102_LLHEMILVCDAYR (UniProt P53618)”, the “probe-labelled cysteine peptide fold change” value was 0.0486.
In the case of “COG3_Q96JB2_363_ELLLGPSIACTVAELTSQNNRDHCALVR (UniProt Q96JB2)”, the “probe-labelled cysteine peptide fold change” value is reported as 0.793.
With “COL4A3BP_Q9Y5P4_185_YFDACADAVSKDELQR (UniProt Q9Y5P4)” the “probe-labelled cysteine peptide fold change” value was 0.0677.
In the case of “COPS7B_Q9H9Q2_110_CIPYSVLLK (UniProt Q9H9Q2)”, the “probe-labelled cysteine peptide fold change” value is reported as 0.0594.
“COG8_Q96MW5_595_LEPAGPACPEGGR (UniProt Q96MW5)” was tested, and the “probe-labelled cysteine peptide fold change” value was 0.00286.
For “COPA_P53621_585_GNNVYCLDRECRPR (UniProt P53621)”, the “probe-labelled cysteine peptide fold change” value was -0.0663.
For “CNBP_P62633_98_EQCCYNCGKPGHLAR (UniProt P62633)”, the “probe-labelled cysteine peptide fold change” value was -0.147.
With “CNP_P09543_111_RLDEDLAAYCR (UniProt P09543)” the “probe-labelled cysteine peptide fold change” value was 0.0555.
With COG1_Q8WTW3_318_LCSWFK (UniProt Q8WTW3) the “probe-labelled cysteine peptide fold change” value was -0.191.
In the case of “CNOT1_A5YKK6_1420_IAMTTCEQIVR (UniProt A5YKK6)”, the “probe-labelled cysteine peptide fold change” value is reported as 0.0403.
With “CNBP_P62633_77_DCDLQEDACYNCGR (UniProt P62633)” the “probe-labelled cysteine peptide fold change” value was 0.0558.
“COPA_P53621_453_VQVPNCDEIFYAGTGNLLLR (UniProt P53621)” was tested, and the “probe-labelled cysteine peptide fold change” value was -0.164.
In the case of “COPB2_P35606_104_CIAVHPTQPFILTSSDDMLIK (UniProt P35606)”, the “probe-labelled cysteine peptide fold change” value is reported as 0.0492.
For “CNN2_Q99439_215_CASQVGMTAPGTR (UniProt Q99439)”, the “probe-labelled cysteine peptide fold change” value was -0.255.
“COPG1_Q9Y678_97_EMSCIAEDVIIVTSSLTK (UniProt Q9Y678)” was tested, and the “probe-labelled cysteine peptide fold change” value was -0.0498.
“COPA_P53621_245_AWEVDTCR (UniProt P53621)” was tested, and the “probe-labelled cysteine peptide fold change” value was -0.0634.
In the case of “CNOT1_A5YKK6_420_HAEGQLSFIQHSLINPEIFCFADYPCHTVATDILK (UniProt A5YKK6)”, the “probe-labelled cysteine peptide fold change” value is reported as -0.0708.
With “COPB2_P35606_351_DMGSCEIYPQTIQHNPNGR (UniProt P35606)” the “probe-labelled cysteine peptide fold change” value was -0.232.
With “COPA_P53621_522_KLDALCNIHENIR (UniProt P53621)” the “probe-labelled cysteine peptide fold change” value was 0.0112.
For “CMPK2_Q5EBM0_226_AVLEECTSFIPEAR (UniProt Q5EBM0)”, the “probe-labelled cysteine peptide fold change” value was -0.12.
In the case of “COPS6_Q7L5N1_299_TCNTMNQFVNK (UniProt Q7L5N1)”, the “probe-labelled cysteine peptide fold change” value is reported as -0.0373.
For “COPE_O14579_212_CSPTLLLLNGQAACHMAQGR (UniProt O14579)”, the “probe-labelled cysteine peptide fold change” value was -0.302.
With “COPS6_Q7L5N1_264_EAYALCHCLPVLSTDK (UniProt Q7L5N1)” the “probe-labelled cysteine peptide fold change” value was 0.164.
For “CNST_Q6PJW8_408_LQLAQTEACQDVAR (UniProt Q6PJW8)”, the “probe-labelled cysteine peptide fold change” value was -0.143.
With “CNOT10_Q9H9A5_504_NSNQLGGNTESSESSETCSSK (UniProt Q9H9A5)” the “probe-labelled cysteine peptide fold change” value was 0.114.
